According to doi:10.1101/2022.08.04.502763:
No constants are given. Whether binding was seen depends on the method and setting. Tags and fused reporters may be left off the sequences shown.

Target: VERNALIZATION5/VIN3-LIKE 3 (VEL3), yeast two-hybrid fusion (Arabidopsis thaliana)
Test: two-hybrid

binding: no binding
B1: HD2C, yeast two-hybrid fusion (protein, UniProt Q9LZR5 1-294)
chain: MEFWGVEVKNGKPLHLDPGLDRLVHISQVALGESKNNVTEPIQLYVTVGSDKLLIGTLSHEKFPQLSTEIVLERNFALSHTWKNGSVFFSGYKVDASDPEPEDLIDDQLEAAGFKAAPKSAAKQVNFQLPNEDVKAKQDDDADGSEEDSSDDDDSENSGDEEEEKVTAESDSEEDDSSDDEEDDSSEEETPKKPEEPKKRSAEPNSSKNPASNKKAKFVTPQKTDSKKPHVHVATPHPSKQAGKNSGGGSTGETSKQQQTPKSAGAFGCKSCTRTFTSEMGLQSHTKAKHSAAA
